PubChem BioAssay AID652272 | Drosophila RNAi Screening Center – 2013
Test: 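Genes whose knock-down decreases or increases Hedgehog reporter output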 (primary screen). Cell system: Drosophila clone 8 (Cl8) cells. Reagents: long dsRNA against Drosophila genes. Measurement: 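Firefly light from a Hedgehog-responsive ptc promoter reporter and Renilla reference light, both read on a plate reader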. Direction: firefly Hh reporter signal: higher = more ptc reporter light; Renilla reference signal: higher = more Renilla control light. Active means: 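Hit when the z-score averaged over two replicates is under -2 or over +3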. Meaning of the calls: active = hit: reporter lowered or raised; inactive = not a hit.
The deposit covers about 21,000 reagents; shown is a random part of those with a known target gene and a result. In the full data, 503 (2.4%) got an active call. 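Raw plate light values, not normalised; calls rest on replicate z-scores that were not deposited; hits include reporter decreases as well as increases.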 The record does not give: the amount of reagent, the time to read-out.

Knock-down of Tsp42En (GeneID 35624) [DRSC06185] came out at: firefly Hh reporter signal, replicate 1 = 93264; firefly Hh reporter signal, replicate 2 = 81392; Renilla reference signal, replicate 1 = 2264; Renilla reference signal, replicate 2 = 6409; inactive.
After knock-down of yrt (GeneID 41656) [DRSC16559] the results were firefly Hh reporter signal, replicate 1 = 1.66e5; firefly Hh reporter signal, replicate 2 = 60450; Renilla reference signal, replicate 1 = 6435; Renilla reference signal, replicate 2 = 1690; inactive.
With knock-down of CG10104 (GeneID 36602) [DRSC05964], the record shows firefly Hh reporter signal, replicate 1 = 1.09e5; firefly Hh reporter signal, replicate 2 = 55744; Renilla reference signal, replicate 1 = 2688; Renilla reference signal, replicate 2 = 4469; inactive.
With knock-down of CG12325 (GeneID 36144) [DRSC06130], the screen gave firefly Hh reporter signal, replicate 1 = 88040; firefly Hh reporter signal, replicate 2 = 52573; Renilla reference signal, replicate 1 = 3645; Renilla reference signal, replicate 2 = 2154; inactive.
Depletion of CG5958 (GeneID 34022) [DRSC02915] resulted in: firefly Hh reporter signal, replicate 1 = 77144; firefly Hh reporter signal, replicate 2 = 52722; Renilla reference signal, replicate 1 = 2288; Renilla reference signal, replicate 2 = 5660; inactive.
Karybeta3 (GeneID 40581) [DRSC12355] scored firefly Hh reporter signal, replicate 1 = 71955; firefly Hh reporter signal, replicate 2 = 59402; Renilla reference signal, replicate 1 = 3141; Renilla reference signal, replicate 2 = 1667; inactive.
CG13760 (GeneID 31237) [DRSC18617] showed firefly Hh reporter signal, replicate 1 = 66032; firefly Hh reporter signal, replicate 2 = 1.99e5; Renilla reference signal, replicate 1 = 2665; Renilla reference signal, replicate 2 = 7648; inactive.
Saf-B (GeneID 42958) [DRSC16167] scored firefly Hh reporter signal, replicate 1 = 1.46e5; firefly Hh reporter signal, replicate 2 = 70534; Renilla reference signal, replicate 1 = 5847; Renilla reference signal, replicate 2 = 2886; inactive.
CG15403 (GeneID 33527) [DRSC00417] scored firefly Hh reporter signal, replicate 1 = 1.37e5; firefly Hh reporter signal, replicate 2 = 63628; Renilla reference signal, replicate 1 = 3232; Renilla reference signal, replicate 2 = 6983; inactive.
Silencing of CheA86a (GeneID 3772145) [DRSC12839] came out at: firefly Hh reporter signal, replicate 1 = 49629; firefly Hh reporter signal, replicate 2 = 2.14e5; Renilla reference signal, replicate 1 = 9985; Renilla reference signal, replicate 2 = 4250; inactive.

2 entries from above, reduced to “Renilla reference signal, replicate 1”.
CG5958 (GeneID 34022) [DRSC02915]: 2288
Karybeta3 (GeneID 40581) [DRSC12355]: 3141

The results go on.
After knock-down of CG9257 (GeneID 35375) [DRSC03173], the screen gave firefly Hh reporter signal, replicate 1 = 66117; firefly Hh reporter signal, replicate 2 = 50405; Renilla reference signal, replicate 1 = 1814; Renilla reference signal, replicate 2 = 4506; inactive.
Against CycT (GeneID 39961) [DRSC11124], the values are firefly Hh reporter signal, replicate 1 = 33594; firefly Hh reporter signal, replicate 2 = 16172; Renilla reference signal, replicate 1 = 2042; Renilla reference signal, replicate 2 = 1450; active.
CG31365 (GeneID 42736) [DRSC15610] scored firefly Hh reporter signal, replicate 1 = 1.87e5; firefly Hh reporter signal, replicate 2 = 1.01e5; Renilla reference signal, replicate 1 = 7162; Renilla reference signal, replicate 2 = 4333; inactive.
With knock-down of tutl (GeneID 46015) [DRSC00441] the results were firefly Hh reporter signal, replicate 1 = 1.16e5; firefly Hh reporter signal, replicate 2 = 41112; Renilla reference signal, replicate 1 = 1361; Renilla reference signal, replicate 2 = 4576; inactive.
Against tutl (GeneID 46015) [DRSC00442], the values are firefly Hh reporter signal, replicate 1 = 78340; firefly Hh reporter signal, replicate 2 = 60296; Renilla reference signal, replicate 1 = 1138; Renilla reference signal, replicate 2 = 5632; inactive.
Against tutl (GeneID 46015) [DRSC00443] the deposit lists firefly Hh reporter signal, replicate 1 = 66352; firefly Hh reporter signal, replicate 2 = 35894; Renilla reference signal, replicate 1 = 944; Renilla reference signal, replicate 2 = 3188; inactive.
